The record followed here is doi:10.1101/523670.

These are yes or no findings as the source states them, for the method shown.

For this assay, the target named is GST-Chm7 (S. cerevisiae (budding yeast)). As to the kind of experiment: pull-down.

B1: Heh1 WH domain (heh1(735-834)) (domain or fragment, UniProt Q03707 735-834)
chain: IEELVTQTMEKLKFQKIKSMSDPKENAYLSIVQLRDIFLSDIVDLKYKNQLWSEVVKYLEHNNSNIKSNLTEIRGEIMKCWEWIGPMELNEPKDSAENKI
On to B1, for which the binding entry was “no binding”.
